Results published in article PMC4237329, “Early Chordate Origin of the Vertebrate Integrin αI Domains” (PLoS ONE, 2014).
These are yes or no findings as the source states them, for the method shown. Some entries that bind do so weakly or less than the wild type. Where a sequence is shown, tags or fusion partners need not be part of it.

Amino acid sequences for entries named in this document (tags omitted). A change or cut given only in a name is not applied to a line headed by its entry.
UniProt P20849: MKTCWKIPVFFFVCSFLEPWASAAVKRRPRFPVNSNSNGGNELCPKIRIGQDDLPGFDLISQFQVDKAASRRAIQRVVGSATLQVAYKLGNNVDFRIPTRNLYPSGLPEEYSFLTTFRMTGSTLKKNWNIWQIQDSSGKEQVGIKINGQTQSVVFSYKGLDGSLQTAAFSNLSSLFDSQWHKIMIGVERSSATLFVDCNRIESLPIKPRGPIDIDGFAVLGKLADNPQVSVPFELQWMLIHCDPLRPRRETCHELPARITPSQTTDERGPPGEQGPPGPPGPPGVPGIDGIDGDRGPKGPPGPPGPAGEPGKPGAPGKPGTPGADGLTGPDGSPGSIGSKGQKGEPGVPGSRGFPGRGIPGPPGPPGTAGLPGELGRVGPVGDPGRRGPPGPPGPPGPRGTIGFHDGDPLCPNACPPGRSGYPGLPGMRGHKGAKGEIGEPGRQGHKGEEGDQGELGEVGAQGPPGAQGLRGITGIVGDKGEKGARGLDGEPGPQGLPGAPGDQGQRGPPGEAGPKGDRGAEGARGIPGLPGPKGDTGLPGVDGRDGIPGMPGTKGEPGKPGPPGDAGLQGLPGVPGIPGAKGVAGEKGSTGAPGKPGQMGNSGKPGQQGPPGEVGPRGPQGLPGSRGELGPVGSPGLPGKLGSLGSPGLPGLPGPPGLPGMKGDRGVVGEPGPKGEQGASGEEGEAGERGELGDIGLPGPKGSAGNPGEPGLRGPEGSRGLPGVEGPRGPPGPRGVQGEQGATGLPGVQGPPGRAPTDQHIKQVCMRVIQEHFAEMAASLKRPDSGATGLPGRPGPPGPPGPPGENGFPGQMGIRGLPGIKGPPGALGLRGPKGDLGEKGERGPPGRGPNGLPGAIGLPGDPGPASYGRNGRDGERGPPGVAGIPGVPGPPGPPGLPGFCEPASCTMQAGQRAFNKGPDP
UniProt Q14055: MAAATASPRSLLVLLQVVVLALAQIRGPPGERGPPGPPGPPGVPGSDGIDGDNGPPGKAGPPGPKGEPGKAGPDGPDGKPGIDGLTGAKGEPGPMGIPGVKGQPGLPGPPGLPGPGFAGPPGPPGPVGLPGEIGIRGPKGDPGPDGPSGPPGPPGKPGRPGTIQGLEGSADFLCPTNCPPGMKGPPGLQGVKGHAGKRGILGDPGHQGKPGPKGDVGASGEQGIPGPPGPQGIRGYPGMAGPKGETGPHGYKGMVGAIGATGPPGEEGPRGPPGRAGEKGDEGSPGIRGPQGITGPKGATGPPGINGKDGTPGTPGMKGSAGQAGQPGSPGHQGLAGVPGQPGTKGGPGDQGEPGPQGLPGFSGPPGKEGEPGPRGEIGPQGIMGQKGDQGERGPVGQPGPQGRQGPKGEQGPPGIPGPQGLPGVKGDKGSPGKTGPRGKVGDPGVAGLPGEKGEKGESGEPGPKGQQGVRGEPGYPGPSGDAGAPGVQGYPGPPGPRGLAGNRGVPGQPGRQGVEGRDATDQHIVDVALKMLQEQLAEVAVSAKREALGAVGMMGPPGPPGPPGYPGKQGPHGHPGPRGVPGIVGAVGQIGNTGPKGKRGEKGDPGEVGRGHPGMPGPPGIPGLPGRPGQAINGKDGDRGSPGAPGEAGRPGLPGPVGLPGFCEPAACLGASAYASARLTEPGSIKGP
UniProt Q14050: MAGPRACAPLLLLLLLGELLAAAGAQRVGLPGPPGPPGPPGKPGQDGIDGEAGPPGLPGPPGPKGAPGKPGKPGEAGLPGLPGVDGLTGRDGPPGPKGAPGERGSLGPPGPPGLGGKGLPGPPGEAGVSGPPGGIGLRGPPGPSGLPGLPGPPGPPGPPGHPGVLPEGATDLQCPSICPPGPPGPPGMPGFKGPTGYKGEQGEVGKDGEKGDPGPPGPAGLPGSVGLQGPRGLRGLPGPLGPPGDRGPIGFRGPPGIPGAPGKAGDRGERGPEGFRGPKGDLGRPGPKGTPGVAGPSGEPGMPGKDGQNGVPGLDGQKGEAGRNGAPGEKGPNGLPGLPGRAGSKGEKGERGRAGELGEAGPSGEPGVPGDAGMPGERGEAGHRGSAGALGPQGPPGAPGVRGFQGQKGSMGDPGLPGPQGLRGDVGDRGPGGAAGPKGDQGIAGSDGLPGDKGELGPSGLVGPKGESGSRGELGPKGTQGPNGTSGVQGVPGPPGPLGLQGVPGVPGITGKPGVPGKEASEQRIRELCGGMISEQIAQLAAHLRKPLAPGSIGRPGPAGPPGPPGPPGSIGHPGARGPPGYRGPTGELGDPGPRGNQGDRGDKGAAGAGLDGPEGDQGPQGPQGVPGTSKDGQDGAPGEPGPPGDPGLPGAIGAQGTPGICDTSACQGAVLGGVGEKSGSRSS
UniProt P02454: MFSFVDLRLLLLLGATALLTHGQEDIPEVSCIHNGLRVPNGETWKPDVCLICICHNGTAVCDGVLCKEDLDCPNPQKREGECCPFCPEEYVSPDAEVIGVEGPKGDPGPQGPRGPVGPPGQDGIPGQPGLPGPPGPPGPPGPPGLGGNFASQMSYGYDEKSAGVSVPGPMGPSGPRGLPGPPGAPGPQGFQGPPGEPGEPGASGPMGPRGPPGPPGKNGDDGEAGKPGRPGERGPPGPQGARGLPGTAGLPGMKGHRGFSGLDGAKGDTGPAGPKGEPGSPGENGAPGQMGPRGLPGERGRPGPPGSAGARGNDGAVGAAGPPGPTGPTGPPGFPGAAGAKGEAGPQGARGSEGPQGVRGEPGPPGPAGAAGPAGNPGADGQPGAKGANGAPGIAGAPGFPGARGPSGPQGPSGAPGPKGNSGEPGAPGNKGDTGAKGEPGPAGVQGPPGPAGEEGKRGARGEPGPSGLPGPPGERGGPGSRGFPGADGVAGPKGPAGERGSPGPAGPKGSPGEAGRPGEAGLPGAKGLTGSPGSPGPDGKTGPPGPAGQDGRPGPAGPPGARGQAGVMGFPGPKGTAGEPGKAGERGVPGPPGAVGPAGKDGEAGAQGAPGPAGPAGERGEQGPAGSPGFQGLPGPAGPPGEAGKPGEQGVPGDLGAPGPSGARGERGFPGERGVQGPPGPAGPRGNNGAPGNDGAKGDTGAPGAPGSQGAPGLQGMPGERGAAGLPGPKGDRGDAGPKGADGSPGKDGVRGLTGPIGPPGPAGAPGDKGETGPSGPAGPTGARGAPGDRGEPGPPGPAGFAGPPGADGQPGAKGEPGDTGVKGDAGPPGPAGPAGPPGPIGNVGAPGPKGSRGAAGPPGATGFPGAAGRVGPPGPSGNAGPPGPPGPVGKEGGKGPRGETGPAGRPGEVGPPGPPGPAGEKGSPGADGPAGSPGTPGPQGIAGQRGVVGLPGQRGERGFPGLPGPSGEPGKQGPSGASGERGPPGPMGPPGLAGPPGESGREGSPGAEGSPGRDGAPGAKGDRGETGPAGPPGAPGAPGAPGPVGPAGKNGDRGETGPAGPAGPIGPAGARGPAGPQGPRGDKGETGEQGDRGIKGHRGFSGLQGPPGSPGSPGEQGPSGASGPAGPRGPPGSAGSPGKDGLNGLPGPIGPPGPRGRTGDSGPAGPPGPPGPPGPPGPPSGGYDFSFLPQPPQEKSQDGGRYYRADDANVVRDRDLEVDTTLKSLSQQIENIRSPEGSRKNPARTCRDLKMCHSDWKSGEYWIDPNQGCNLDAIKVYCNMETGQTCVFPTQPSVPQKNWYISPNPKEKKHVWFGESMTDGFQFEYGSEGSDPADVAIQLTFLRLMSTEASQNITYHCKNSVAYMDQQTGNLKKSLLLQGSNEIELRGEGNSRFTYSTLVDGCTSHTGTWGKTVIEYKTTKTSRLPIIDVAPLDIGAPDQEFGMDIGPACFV
UniProt P08122: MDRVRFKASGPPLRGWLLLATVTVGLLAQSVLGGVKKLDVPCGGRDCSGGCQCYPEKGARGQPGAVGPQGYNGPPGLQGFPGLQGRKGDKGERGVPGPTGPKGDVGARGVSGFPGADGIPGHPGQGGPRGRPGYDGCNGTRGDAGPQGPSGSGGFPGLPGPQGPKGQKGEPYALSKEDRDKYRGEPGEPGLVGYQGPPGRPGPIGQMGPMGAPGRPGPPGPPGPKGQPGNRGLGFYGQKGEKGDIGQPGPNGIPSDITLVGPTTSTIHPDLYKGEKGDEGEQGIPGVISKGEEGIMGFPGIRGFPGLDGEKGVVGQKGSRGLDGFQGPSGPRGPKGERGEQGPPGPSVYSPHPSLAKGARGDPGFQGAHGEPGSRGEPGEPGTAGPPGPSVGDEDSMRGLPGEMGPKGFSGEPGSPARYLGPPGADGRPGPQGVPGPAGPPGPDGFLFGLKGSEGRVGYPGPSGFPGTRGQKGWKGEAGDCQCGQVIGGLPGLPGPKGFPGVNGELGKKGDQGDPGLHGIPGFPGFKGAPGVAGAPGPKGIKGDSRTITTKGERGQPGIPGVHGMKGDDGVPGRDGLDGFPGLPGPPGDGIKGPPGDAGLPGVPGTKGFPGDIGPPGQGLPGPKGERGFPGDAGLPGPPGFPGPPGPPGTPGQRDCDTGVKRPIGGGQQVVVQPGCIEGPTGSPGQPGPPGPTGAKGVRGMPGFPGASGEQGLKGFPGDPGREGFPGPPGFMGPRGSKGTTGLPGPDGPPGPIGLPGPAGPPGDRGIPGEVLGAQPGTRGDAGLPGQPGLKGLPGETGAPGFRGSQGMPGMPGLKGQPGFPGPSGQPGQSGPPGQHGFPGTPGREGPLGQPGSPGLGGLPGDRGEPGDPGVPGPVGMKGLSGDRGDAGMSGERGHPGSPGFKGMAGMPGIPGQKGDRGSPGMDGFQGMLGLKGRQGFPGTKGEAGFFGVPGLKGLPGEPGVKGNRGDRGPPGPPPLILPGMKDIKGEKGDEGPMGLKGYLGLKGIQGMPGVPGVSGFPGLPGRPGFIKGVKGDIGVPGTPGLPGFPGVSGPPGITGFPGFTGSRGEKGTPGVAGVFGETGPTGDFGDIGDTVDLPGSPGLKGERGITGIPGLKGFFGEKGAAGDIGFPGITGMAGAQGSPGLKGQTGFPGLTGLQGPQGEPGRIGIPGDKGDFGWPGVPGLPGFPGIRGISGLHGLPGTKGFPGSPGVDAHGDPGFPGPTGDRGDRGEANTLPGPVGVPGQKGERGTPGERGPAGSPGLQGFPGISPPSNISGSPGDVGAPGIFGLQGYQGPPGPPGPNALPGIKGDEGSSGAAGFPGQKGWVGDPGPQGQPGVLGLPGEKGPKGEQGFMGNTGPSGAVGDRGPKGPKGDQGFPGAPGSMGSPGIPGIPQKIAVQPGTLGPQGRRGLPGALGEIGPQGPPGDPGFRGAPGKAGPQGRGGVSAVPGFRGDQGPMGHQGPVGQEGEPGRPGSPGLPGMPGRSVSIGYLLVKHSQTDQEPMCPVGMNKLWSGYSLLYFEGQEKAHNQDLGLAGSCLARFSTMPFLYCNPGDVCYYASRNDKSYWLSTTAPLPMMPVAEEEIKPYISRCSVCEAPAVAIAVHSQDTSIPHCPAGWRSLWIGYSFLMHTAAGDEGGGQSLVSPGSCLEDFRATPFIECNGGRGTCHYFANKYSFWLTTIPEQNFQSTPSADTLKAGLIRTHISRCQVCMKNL

How the values were obtained:
Experiment in all cases: solid-phase binding assay (Europium-labelled anti-GST antibody, time-resolved fluorescence); 96-well plates coated with collagen (16.4 µg/ml) or GFOGER-peptide (5 µg/ml) overnight at 4°C, blocked with BSA-Diluent II; GST-αI domain at a fixed 400 nM added for one hour at RT in PBS + 2 mM …; some samples on rat collagen I with 10 mM EDTA in the binding step; both purified
[1] = target: recombinant human collagen IX (human) (UniProt P20849+Q14055+Q14050)
rat tail collagen I = target: T1, rat tail collagen I (rat, UniProt P02454 152-1207; P02466 86-1125)
T1 construct: collagen α1(I) chain, rat; collagen α2(I) chain, rat; also called rat collagen I; source: bought: Sigma Aldrich (rat tail collagen I)

[2] = target: mouse collagen IV (EHS mouse tumor) (mouse) (UniProt P02463+P08122)

Measured: binding

B1: Pma_f2 αI domain (sea lamprey integrin α subunit fragment Pma_f2), GST-fusion protein (domain or fragment, sea lamprey (Petromyzon marinus))
chain: ADFQVTSTLTPAAQRCGLFMDIVIVLDGSNSIYPWQEVQNFVINIVKKFHIGPGQSRNGGGSTRFGVRTIHWHLGIARWACEGVQDVENIYSRPFVRTASALCQSLQVVRSEAFSPLFGAREGASKVMIVVTDGESHDSEDLTEAIAACERDNITRYAIAVLGYYKRKNIDPSNFISELKAISSEPEEKHFINVADEAALNDIVGTLGERIFSLEGTV
notes: also called Pma αI domains; source: E. coli BL21 tuner (gene synthesized, in pGEX-2T), recombinant GST-fusion protein, "sufficiently pure"
binds: all assays above
